Laboratory results: PMC5687617
These are yes or no findings as the source states them, for the method shown. Binding seen in cells or lysates may run through a third protein. Some results given as binding are weak or reduced against the parent protein; the word gives no strength.

Chains of the proteins cited; added tags and fusions are not shown.
UniProt Q15327: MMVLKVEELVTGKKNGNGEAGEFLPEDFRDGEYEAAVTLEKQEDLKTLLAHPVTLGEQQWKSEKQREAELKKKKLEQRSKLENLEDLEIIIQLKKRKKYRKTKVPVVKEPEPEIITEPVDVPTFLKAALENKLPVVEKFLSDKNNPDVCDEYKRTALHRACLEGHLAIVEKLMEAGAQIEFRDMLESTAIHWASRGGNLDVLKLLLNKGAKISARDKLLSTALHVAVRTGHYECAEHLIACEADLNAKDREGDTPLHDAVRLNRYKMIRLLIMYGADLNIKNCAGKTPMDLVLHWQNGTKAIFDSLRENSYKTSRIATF
UniProt Q00987: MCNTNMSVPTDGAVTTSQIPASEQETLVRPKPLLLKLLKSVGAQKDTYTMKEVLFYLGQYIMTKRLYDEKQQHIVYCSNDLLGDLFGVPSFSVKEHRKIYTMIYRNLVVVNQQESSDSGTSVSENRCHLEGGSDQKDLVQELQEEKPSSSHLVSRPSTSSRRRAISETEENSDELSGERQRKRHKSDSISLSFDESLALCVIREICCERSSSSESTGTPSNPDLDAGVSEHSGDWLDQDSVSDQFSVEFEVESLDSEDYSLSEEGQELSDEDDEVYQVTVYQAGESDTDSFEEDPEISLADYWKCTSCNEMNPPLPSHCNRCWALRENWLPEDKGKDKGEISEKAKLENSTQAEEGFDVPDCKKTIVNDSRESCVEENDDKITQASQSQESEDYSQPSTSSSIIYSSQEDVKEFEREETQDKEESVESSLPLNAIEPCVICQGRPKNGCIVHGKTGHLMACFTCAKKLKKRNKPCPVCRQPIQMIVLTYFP

Legend:
[1] = biological target: Flag-ANKRD1 (Ankyrin Repeat Domain 1/CARP) (human) (UniProt Q15327); assay: co-IP; HEK293T transfected with Flag-ANKRD1 or Flag-empty, lysed after 72 h; lysates incubated overnight with anti-flag M2 agarose beads; beads washed twice with cold TBS; western blot for MDM2 and p53
[2] = biological target: GFP-tagged ANKRD1 (human) (UniProt Q15327); assay: co-IP; HEK293T transfected with GFP/YFP-tagged ANKRD1 or empty vector; lysates incubated overnight with anti-GFP agarose beads (Chromotek); beads washed twice with cold TBS; western blot

MDM2 (human homologue of mouse double minute 2) (from UniProt Q00987 1-491)
binding [1]: binds | binding [2]: binds

p53 (Tumor Suppressor p53) (from UniProt P04637 1-393)
binding [1]: binds | binding [2]: binds
